In patent US20090233858A1:
Results are given in words; binding and its absence hold for the method and conditions named. Some entries that bind do so weakly or less than the wild type.

Chains of the proteins cited; added tags and fusions are not shown. Lines headed by an entry give the natural chain unless they say otherwise; changes in a name come on top.
UniProt P30153: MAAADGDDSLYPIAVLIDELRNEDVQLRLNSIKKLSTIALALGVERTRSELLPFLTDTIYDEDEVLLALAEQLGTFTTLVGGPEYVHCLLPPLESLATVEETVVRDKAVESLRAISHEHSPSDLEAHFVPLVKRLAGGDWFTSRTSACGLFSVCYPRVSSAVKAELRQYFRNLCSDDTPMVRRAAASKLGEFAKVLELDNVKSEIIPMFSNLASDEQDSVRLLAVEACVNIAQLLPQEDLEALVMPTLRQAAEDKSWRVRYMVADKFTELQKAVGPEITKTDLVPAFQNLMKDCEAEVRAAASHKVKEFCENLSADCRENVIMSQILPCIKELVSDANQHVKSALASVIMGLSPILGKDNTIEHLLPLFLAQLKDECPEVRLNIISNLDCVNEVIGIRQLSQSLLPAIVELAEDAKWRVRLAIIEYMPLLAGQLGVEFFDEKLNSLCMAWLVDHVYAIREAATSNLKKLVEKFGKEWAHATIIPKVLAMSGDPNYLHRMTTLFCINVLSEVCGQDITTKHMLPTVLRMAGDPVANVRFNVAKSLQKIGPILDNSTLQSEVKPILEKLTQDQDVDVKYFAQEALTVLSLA
UniProt P67775: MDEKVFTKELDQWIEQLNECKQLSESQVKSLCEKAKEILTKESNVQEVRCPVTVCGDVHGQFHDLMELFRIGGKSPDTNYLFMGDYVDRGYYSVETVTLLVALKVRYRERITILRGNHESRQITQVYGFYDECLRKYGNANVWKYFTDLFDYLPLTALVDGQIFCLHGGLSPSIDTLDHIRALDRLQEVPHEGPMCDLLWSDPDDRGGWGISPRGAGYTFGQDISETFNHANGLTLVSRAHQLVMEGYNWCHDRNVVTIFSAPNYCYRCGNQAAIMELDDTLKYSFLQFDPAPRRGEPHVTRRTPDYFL

What was measured:
[1] = molecular target: heterodimeric PP2A core enzyme (full-length Aα and Cα) (human) (UniProt P30153); assay: in vitro holoenzyme assembly with methylated core enzyme
[2] = molecular target: GST-Aα (Aα residues 1-589 as a fusion protein with glutathione S transferase) (human) (UniProt P30153); assay: glutathione sepharose pull-out from co-expressed Bα and His6-Cα
[3] = molecular target: heterodimeric PP2A core enzyme (full-length Aα and Cα) (human) (UniProt P30153); assay: in vitro holoenzyme assembly with unmethylated core enzyme, data not shown
[4] = molecular target: PP2A catalytic subunit Cα (residues 1-309) (human) (UniProt P67775); assay: crystal structure of the holoenzyme
[5] = molecular target: PP2A scaffold subunit Aα (residues 1-589) (human) (UniProt P30153); assay: crystal structure of the holoenzyme
[6] = molecular target: PP2A scaffold subunit Aα (residues 1-589) (human) (UniProt P30153); assay: biochemical analysis with the isolated A subunit, data not shown; also the crystal structure

Measured: binding

B1: PP2A regulatory subunit Bα (residues 1-447) (protein)
chain: MAGAGGGNDIQWCFSQVKGAVDDDVAEADIISTVEFNHSGELLATGDKGGRVVIFQQEQENKIQSHSRGEYNVYSTFQSHEPEFDYLKSLEIEEKINKIRWLPQKNAAQFLLSTNDKTIKLWKISERDKRPEGYNLKEEDGRYRDPTTVTTLRVPVFRPMDLMVEASPRRIFANAHTYHINSISINSDYETYLSADDLRINLWHLEITDRSFNIVDIKPANMEELTEVITAAEFHPNSCNTFVYSSSKGTIRLCDMRASALCDRHSKLFEEPEDPSNRSFFSEIISSISDVKFSHSGRYMMTRDYLSVKVWDLNMENRPVETYQVHEYLRSKLCSLYENDCIFDKFECCWNGSDSVVMTGSYNNFFRMFDRNTKRDITLEASRENNKPRTVLKPRKVCASGKRKKDEISVDSLDFNKKILHTAWHPKENIIAVATTNNLYIFQDKVN
binds: all assays above
